Results are given in words; binding and its absence hold for the method and conditions named. In cells and extracts the contact can be indirect. Binding can be weak; no strength is given. Where a sequence is shown, tags or fusion partners need not be part of it.
T1: Human Slit2 tagged with c-Myc (Slit2-Myc) (human) (UniProt O94813)
T1 sequence: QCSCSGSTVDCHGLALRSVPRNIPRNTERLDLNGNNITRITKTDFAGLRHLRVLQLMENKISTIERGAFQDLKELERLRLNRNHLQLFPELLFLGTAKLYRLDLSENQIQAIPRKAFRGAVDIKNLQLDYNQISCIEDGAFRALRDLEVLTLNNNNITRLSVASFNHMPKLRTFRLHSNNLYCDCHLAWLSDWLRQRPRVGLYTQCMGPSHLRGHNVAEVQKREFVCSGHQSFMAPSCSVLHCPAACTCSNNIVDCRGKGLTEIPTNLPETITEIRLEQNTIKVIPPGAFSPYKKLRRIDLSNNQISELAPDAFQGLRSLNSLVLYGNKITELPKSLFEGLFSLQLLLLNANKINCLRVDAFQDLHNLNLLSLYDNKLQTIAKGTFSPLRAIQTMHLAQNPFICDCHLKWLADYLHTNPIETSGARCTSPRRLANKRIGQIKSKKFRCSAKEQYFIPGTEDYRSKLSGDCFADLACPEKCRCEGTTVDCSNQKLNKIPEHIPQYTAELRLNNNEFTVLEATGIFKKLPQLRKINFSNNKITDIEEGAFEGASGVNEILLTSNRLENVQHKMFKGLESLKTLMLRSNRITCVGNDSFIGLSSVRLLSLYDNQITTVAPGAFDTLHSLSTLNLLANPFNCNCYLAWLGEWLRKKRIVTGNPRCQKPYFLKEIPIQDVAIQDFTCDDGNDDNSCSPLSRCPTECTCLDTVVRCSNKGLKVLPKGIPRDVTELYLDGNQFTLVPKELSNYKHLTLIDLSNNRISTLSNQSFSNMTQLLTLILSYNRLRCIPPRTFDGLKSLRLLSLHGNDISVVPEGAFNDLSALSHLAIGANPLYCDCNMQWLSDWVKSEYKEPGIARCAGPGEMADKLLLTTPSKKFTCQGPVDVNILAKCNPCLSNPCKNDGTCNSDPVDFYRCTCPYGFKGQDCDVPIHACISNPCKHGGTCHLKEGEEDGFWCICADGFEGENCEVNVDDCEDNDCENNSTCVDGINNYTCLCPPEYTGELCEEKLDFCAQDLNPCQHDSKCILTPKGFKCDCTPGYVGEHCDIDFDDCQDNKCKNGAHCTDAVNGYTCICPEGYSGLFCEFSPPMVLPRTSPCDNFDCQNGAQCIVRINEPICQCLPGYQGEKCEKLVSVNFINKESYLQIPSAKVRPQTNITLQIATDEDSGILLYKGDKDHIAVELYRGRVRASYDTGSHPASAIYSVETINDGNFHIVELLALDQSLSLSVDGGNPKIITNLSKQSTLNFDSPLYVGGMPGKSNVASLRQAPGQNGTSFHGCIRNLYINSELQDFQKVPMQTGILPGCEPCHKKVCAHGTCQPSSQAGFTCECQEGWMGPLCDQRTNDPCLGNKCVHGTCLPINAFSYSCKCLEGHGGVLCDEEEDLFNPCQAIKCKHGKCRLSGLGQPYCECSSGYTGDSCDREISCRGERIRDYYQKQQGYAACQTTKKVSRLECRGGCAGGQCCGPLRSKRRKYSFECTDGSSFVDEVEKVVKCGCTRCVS


How the values were obtained:
[1] = biological target: T1, Human Slit2 tagged with c-Myc (Slit2-Myc) (human); experiment: co-IP; HEK293 cells transfected with the two constructs (single transfections as controls); IP with APPc, anti-HA or anti-Myc antibody, Western blot
[2] = biological target: APPΔE2 (human) (UniProt P05067); experiment: as above

| Molecule | binding [1] | binding [2] |
| --- | --- | --- |
| APPΔC (human) (domain or fragment) | binds | – |
| FL Slit2 fused N terminally to the human alkaline phosphatase sequence (ligand, UniProt O94813 31-1529, looked up, Slit2, full length, put in place of Netrin 5 in the vector Ntn5.a-AP-His (Addgene); also called AP-tagged Slit2; alkaline phosphatase (AP)-tagged Slit2; source: HEK293T, transfected, in supernatant; not shown: alkaline phosphatase (human), C-terminal, kept) QCSCSGSTVDCHGLALRSVPRNIPRNTERLDLNGNNITRITKTDFAGLRHLRVLQLMENKISTIERGAFQDLKELERLRLNRNHLQLFPELLFLGTAKLYRLDLSENQIQAIPRKAFRGAVDIKNLQLDYNQISCIEDGAFRALRDLEVLTLNNNNITRLSVASFNHMPKLRTFRLHSNNLYCDCHLAWLSDWLRQRPRVGLYTQCMGPSHLRGHNVAEVQKREFVCSGHQSFMAPSCSVLHCPAACTCSNNIVDCRGKGLTEIPTNLPETITEIRLEQNTIKVIPPGAFSPYKKLRRIDLSNNQISELAPDAFQGLRSLNSLVLYGNKITELPKSLFEGLFSLQLLLLNANKINCLRVDAFQDLHNLNLLSLYDNKLQTIAKGTFSPLRAIQTMHLAQNPFICDCHLKWLADYLHTNPIETSGARCTSPRRLANKRIGQIKSKKFRCSAKEQYFIPGTEDYRSKLSGDCFADLACPEKCRCEGTTVDCSNQKLNKIPEHIPQYTAELRLNNNEFTVLEATGIFKKLPQLRKINFSNNKITDIEEGAFEGASGVNEILLTSNRLENVQHKMFKGLESLKTLMLRSNRITCVGNDSFIGLSSVRLLSLYDNQITTVAPGAFDTLHSLSTLNLLANPFNCNCYLAWLGEWLRKKRIVTGNPRCQKPYFLKEIPIQDVAIQDFTCDDGNDDNSCSPLSRCPTECTCLDTVVRCSNKGLKVLPKGIPRDVTELYLDGNQFTLVPKELSNYKHLTLIDLSNNRISTLSNQSFSNMTQLLTLILSYNRLRCIPPRTFDGLKSLRLLSLHGNDISVVPEGAFNDLSALSHLAIGANPLYCDCNMQWLSDWVKSEYKEPGIARCAGPGEMADKLLLTTPSKKFTCQGPVDVNILAKCNPCLSNPCKNDGTCNSDPVDFYRCTCPYGFKGQDCDVPIHACISNPCKHGGTCHLKEGEEDGFWCICADGFEGENCEVNVDDCEDNDCENNSTCVDGINNYTCLCPPEYTGELCEEKLDFCAQDLNPCQHDSKCILTPKGFKCDCTPGYVGEHCDIDFDDCQDNKCKNGAHCTDAVNGYTCICPEGYSGLFCEFSPPMVLPRTSPCDNFDCQNGAQCIVRINEPICQCLPGYQGEKCEKLVSVNFINKESYLQIPSAKVRPQTNITLQIATDEDSGILLYKGDKDHIAVELYRGRVRASYDTGSHPASAIYSVETINDGNFHIVELLALDQSLSLSVDGGNPKIITNLSKQSTLNFDSPLYVGGMPGKSNVASLRQAPGQNGTSFHGCIRNLYINSELQDFQKVPMQTGILPGCEPCHKKVCAHGTCQPSSQAGFTCECQEGWMGPLCDQRTNDPCLGNKCVHGTCLPINAFSYSCKCLEGHGGVLCDEEEDLFNPCQAIKCKHGKCRLSGLGQPYCECSSGYTGDSCDREISCRGERIRDYYQKQQGYAACQTTKKVSRLECRGGCAGGQCCGPLRSKRRKYSFECTDGSSFVDEVEKVVKCGCTRCVS | – | binds |

— article PMC5534435, “The Amyloid Precursor Protein Is a Conserved Receptor for Slit to Mediate Axon Guidance” (eNeuro, 2017)
